Measurements as given in PMC12514197, “LARGE1 processively polymerizes length-controlled matriglycan on prodystroglycan” (Nature Communications, 2025).
Results are given in words; binding and its absence hold for the method and conditions named. Binding can be weak; no strength is given.

Target: mutated protomer of the pseudomonomeric LARGE1dTM heterodimer (UniProt O95461)
Assay: tandem affinity purification; co-expression of two differently tagged LARGE1dTM protomers (FLAG-tagged DXD1 and his-tagged DXD3), then tandem affinity purification

B1: wild-type protomer of the pseudomonomeric LARGE1dTM heterodimer (enzyme, UniProt O95461 34-756)
chain: FEDGKPVSLSPLESQAHSPRYTASSQRERESLEVRMREVEEENRALRRQLSLAQGRAPSHRRGNHSKTYSMEEGTGDSENLRAGIVAGNSSECGQQPVVEKCETIHVAIVCAGYNASRDVVTLVKSVLFHRRNPLHFHLIADSIAEQILATLFQTWMVPAVRVDFYNADELKSEVSWIPNKHYSGIYGLMKLVLTKTLPANLERVIVLDTDITFATDIAELWAVFHKFKGQQVLGLVENQSDWYLGNLWKNHRPWPALGRGYNTGVILLLLDKLRKMKWEQMWRLTAERELMGMLSTSLADQDIFNAVIKQNPFLVYQLPCFWNVQLSDHTRSEQCYRDVSDLKVIHWNSPKKLRVKNKHVEFFRNLYLTFLEYDGNLLRRELFGCPSEADVNSENLQKQLSELDEDDLCYEFRRERFTVHRTHLYFLHYEYEPAADSTDVTLVAQLSMDRLQMLEAICKHWEGPISLALYLSDAEAQQFLRYAQGSEVLMSRHNVGYHIVYKEGQFYPVNLLRNVAMKHISTPYMFLSDIDFLPMYGLYEYLRKSVIQLDLANTKKAMIVPAFETLRYRLSFPKSKAELLSMLDMGTLFTFRYHVWTKGHAPTNFAKWRTATTPYRVEWEADFEPYVVVRRDCPEYDRRFVGFGWNKVAHIMELDVQEYEFIVLPNAYMIHMPHAPSFDITKFRSNKQYRICLKTLKEEFQQDMSRRYGFAALKYLTAENNS
With B1 the binding was “binds”.
